Measurements reported in PubChem BioAssay AID1159578 (Peter MacCallum Cancer Centre, 2015).
Assay: 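siRNA pools altering how lymphatic endothelial cells close a scratch wound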 (primary screen). Cell system: human lymphatic endothelial cells. Knock-down reagent: siRNA pool against human genes, 40 nM. Time to read-out: 48 h after transfection. Measurement: 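Cells stained with dye and imaged after a scratch; covered wound area and nuclei counted, duplicates averaged, migration set against mock wells and turned into a robust z-score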. Direction: migration robust z-score: higher = faster migration into the scratch; migration relative to mock: higher = more scratch area covered than mock; nuclei per well: higher = more cells in the well. Call rule: 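Migration changed when robust z exceeds 2 or falls below -2 and mean nuclei number is at least 3300; otherwise not called changed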. Calls: active = migration changed; inactive = no migration change, or too few cells.
The deposit covers about 18,000 reagents; shown is a part drawn at random. In the full data, about 1,030 (5.7%) got an active call. 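Inactive calls also include pools with fewer than 3300 nuclei, whose migration was not assessed.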 The raw values are shown without normalisation. No sequences are given here.

| Target gene | migration robust z-score | migration class with cell-count check | migration relative to mock | nuclei per well, duplicate mean | Outcome |
| --- | --- | --- | --- | --- | --- |
| DIS3 | 0.54 | migration z between -2 and 2; enough cells | 0.91 | 4981 | inactive |
| CCDC63 | 1.15 | migration z between -2 and 2; enough cells | 1.18 | 5395 | inactive |
| POLR3C | -1.22 | migration z between -2 and 2; enough cells | 0.57 | 5047 | inactive |
| ZNF681 | -0.9 | migration z between -2 and 2; enough cells | 0.66 | 6428 | inactive |
| PECAM1 | 0.77 | migration z between -2 and 2; enough cells | 1.08 | 6177 | inactive |
| TFAP2D | 1.43 | migration z between -2 and 2; enough cells | 1.08 | 4204 | inactive |
| RILPL1 | 1.42 | migration z between -2 and 2; enough cells | 1.25 | 6535 | inactive |
| ECI2 | -0.65 | migration z between -2 and 2; enough cells | 0.68 | 4494 | inactive |
| CPSF6 | 0.48 | migration z between -2 and 2; enough cells | 1.01 | 6464 | inactive |
| LRRC28 | 1.18 | migration z between -2 and 2; enough cells | 1.19 | 5247 | inactive |
| H2BC18 | 0.16 | migration z between -2 and 2; enough cells | 0.92 | 7284 | inactive |
| LIMD1 | 1.1 | migration z between -2 and 2; enough cells | 1.17 | 5009 | inactive |
| KAT6B | 0.28 | migration z between -2 and 2; enough cells | 0.86 | 4992 | inactive |
| CHTF18 | -0.16 | migration z between -2 and 2; enough cells | 0.84 | 5072 | inactive |
| FUT6 | -1.34 | migration z between -2 and 2; enough cells | 0.54 | 5522 | inactive |
| BMPER | 1.02 | migration z between -2 and 2; enough cells | 1.16 | 5484 | inactive |
| OGDHL | 0.46 | migration z between -2 and 2; enough cells | 0.9 | 5900 | inactive |
| HGF | -0.49 | migration z between -2 and 2; enough cells | 0.71 | 5316 | inactive |
| PLA2R1 | -1.24 | migration z between -2 and 2; enough cells | 0.56 | 4880 | inactive |
| FAM8A1 | 0.52 | migration z between -2 and 2; enough cells | 1.02 | 5974 | inactive |
| AAAS | 0.25 | migration z between -2 and 2; enough cells | 0.94 | 5045 | inactive |
| COX20 | 1.79 | migration z between -2 and 2; enough cells | 1.35 | 6240 | inactive |
| HCP5 | -0.21 | migration z between -2 and 2; enough cells | 0.82 | 5424 | inactive |
| LRRC8A | -0.28 | under 3300 nuclei; migration not judged | 0.81 | 3292 | inactive |
| NRP2 | 0.31 | migration z between -2 and 2; enough cells | 0.86 | 5507 | inactive |
| FDX1 | 0.55 | migration z between -2 and 2; enough cells | 0.91 | 6272 | inactive |
| CROCC | -0.15 | migration z between -2 and 2; enough cells | 0.84 | 5002 | inactive |
| CABP2 | 0.82 | migration z between -2 and 2; enough cells | 1.1 | 7280 | inactive |
| LMNB2 | 0.38 | migration z between -2 and 2; enough cells | 0.98 | 5916 | inactive |
| FANCE | -0.07 | migration z between -2 and 2; enough cells | 0.86 | 5693 | inactive |
| THG1L | 0.1 | migration z between -2 and 2; enough cells | 0.92 | 5073 | inactive |
| CMTM6 | -0.85 | migration z between -2 and 2; enough cells | 0.67 | 7004 | inactive |
| EXT2 | 1.3 | migration z between -2 and 2; enough cells | 1.06 | 6634 | inactive |
| NET1 | -0.38 | migration z between -2 and 2; enough cells | 0.78 | 6210 | inactive |
| ZNF767P | -1.44 | migration z between -2 and 2; enough cells | 0.52 | 3819 | inactive |
| ADAMTS9 | 0.73 | migration z between -2 and 2; enough cells | 0.94 | 5904 | inactive |
| ZNF562 | 0.9 | migration z between -2 and 2; enough cells | 1.12 | 5696 | inactive |
| SAE1 | 0.39 | migration z between -2 and 2; enough cells | 0.88 | 5365 | inactive |
| SKP1 | 1.2 | migration z between -2 and 2; enough cells | 1.04 | 6036 | inactive |
| MRPL9 | 2.02 | migration z above 2; enough cells | 1.19 | 5291 | active |
| CSGALNACT1 | -4.8 | migration z below -2; enough cells | -0.12 | 3537 | active |
| B3GNT8 | 0.99 | migration z between -2 and 2; enough cells | 1 | 5960 | inactive |
| RLN3 | 0.38 | migration z between -2 and 2; enough cells | 0.98 | 4955 | inactive |
| GPAT2 | 1.16 | migration z between -2 and 2; enough cells | 1.19 | 4682 | inactive |
| LINC00482 | 0.86 | migration z between -2 and 2; enough cells | 1.11 | 6220 | inactive |
| ZNF649 | 0.42 | migration z between -2 and 2; enough cells | 1 | 6036 | inactive |
| WIPF2 | 0.17 | migration z between -2 and 2; enough cells | 0.93 | 5709 | inactive |
| LDLRAD2 | 0.55 | migration z between -2 and 2; enough cells | 1.02 | 4296 | inactive |
| FAM13B | 1.62 | migration z between -2 and 2; enough cells | 1.3 | 6884 | inactive |
| AGPAT1 | -0.1 | migration z between -2 and 2; enough cells | 0.78 | 4077 | inactive |
| RFC3 | 0.73 | migration z between -2 and 2; enough cells | 0.94 | 5146 | inactive |
| SEC62 | -0.72 | migration z between -2 and 2; enough cells | 0.7 | 5066 | inactive |
| MZT1 | -0.1 | migration z between -2 and 2; enough cells | 0.86 | 6112 | inactive |
| FAM110B | 0.61 | migration z between -2 and 2; enough cells | 1.04 | 8852 | inactive |
| C14orf39 | 1.21 | migration z between -2 and 2; enough cells | 1.2 | 6546 | inactive |
| RASGEF1C | -1.2 | migration z between -2 and 2; enough cells | 0.57 | 4713 | inactive |
| ARF4 | 0.11 | migration z between -2 and 2; enough cells | 0.82 | 5518 | inactive |

Just “migration relative to mock” (5 entries from above):
CMTM6: 0.67
EXT2: 1.06
NET1: 0.78
ZNF767P: 0.52
ADAMTS9: 0.94
